Results are given in words; binding and its absence hold for the method and conditions named. Some entries that bind do so weakly or less than the wild type. For some assays here: Tags and fused reporters may be left off the sequences shown.
Experiments:
[1] = molecular target: T1, ALK2-ActRIIB (cleaved from the Fc-domain, still joined by the hinge disulfides) (human) (UniProt Q04771+Q13705); experiment: cryo-EM structure; IdeS-digested trap with BMP6, complex purified by SEC, ~3 mg/mL, 0.15% PMAL-C8 amphipol; C2 symmetry applied; both purified
T1 sequence 1: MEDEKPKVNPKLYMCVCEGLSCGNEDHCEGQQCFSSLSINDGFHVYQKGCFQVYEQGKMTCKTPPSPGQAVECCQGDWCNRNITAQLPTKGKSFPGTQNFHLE
T1 sequence 2: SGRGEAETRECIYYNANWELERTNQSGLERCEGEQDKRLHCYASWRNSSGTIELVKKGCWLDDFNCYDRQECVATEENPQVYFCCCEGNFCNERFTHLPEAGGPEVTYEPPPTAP

The chains behind the UniProt entries cited, without tags or fusion partners. Residues count along the entry.
UniProt P22004, residues 375-513: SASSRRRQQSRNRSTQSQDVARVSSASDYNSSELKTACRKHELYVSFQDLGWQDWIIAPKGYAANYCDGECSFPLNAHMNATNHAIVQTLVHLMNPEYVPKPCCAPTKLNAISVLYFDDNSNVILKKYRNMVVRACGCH

[2] = molecular target: T2, ActRIIB-ECD (the ActRIIB arm of ALK2-ActRIIB and ALK3-ActRIIB in the cryoEM structures) (human) (UniProt Q13705); experiment: as above
T2 sequence: T1 sequence 2

[3] = molecular target: Recombinant human BMP6, mammalian expressed (glycosylated) (human) (UniProt P22004); experiment: as above
[4] = molecular target: T1, ALK2-ActRIIB (cleaved from the Fc-domain, still joined by the hinge disulfides) (human); experiment: SEC; trap (with Fc or IdeS-digested) mixed with BMP6; Superdex 200 increase; for the digested traps 2.1:1 trap:ligand, 30 min at room temperature; both purified
ALK2-ActRIIB-Fc = molecular target: T3, ALK2-ActRIIB-Fc (human, UniProt Q04771 21-123; Q13705 19-133); experiment: as above
T3 construct: signal peptide in the construct; extracellular domain of human ActRIIB, residues 1 to 133; also called heterodimeric trap; ActRIIB-ALK2; source: CHO cells, cotransfected, purified (MabSelect SuRe protein A with pH gradient, SEC); not shown: Fc (IgG1), C-terminal, kept; copies: 1 + 1

Measured: binding

Recombinant human BMP6, mammalian expressed (glycosylated) (from UniProt P22004 375-513) (ligand)
binds: all assays above

From publication PMC12415261 (Proceedings of the National Academy of Sciences of the …, 2025)
